The target of this assay is Mycobacterium tuberculosis σ^A (housekeeping group I σ factor) (Mycobacterium tuberculosis) (UniProt P9WGI1). Kind of assay: co-purification (Ni2+ affinity, then SEC).

Protein sequences, listed by entry. Tags and fused reporters are not part of them.
UniProt P9WGI1: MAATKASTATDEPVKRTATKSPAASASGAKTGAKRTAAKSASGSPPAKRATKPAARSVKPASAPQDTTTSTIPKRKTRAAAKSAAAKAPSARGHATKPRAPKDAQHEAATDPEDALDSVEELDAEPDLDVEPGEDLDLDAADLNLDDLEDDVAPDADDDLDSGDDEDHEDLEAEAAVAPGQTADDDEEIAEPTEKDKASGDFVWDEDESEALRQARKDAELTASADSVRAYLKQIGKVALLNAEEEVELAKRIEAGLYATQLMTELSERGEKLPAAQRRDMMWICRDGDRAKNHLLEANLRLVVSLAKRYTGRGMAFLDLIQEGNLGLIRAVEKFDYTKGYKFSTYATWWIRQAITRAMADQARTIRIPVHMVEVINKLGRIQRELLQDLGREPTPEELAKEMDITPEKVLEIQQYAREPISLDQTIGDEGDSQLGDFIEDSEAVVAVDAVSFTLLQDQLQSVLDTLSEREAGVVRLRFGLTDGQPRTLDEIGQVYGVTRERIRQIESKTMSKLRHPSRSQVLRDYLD
UniProt P9WHJ5: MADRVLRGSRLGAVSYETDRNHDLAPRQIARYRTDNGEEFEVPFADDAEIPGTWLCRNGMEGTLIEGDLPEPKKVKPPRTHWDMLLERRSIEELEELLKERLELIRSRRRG

No constants are given. Whether binding was seen depends on the method and setting. Some binding calls cover weakened binding; strength is not graded here.

Consider “Mycobacterium tuberculosis RbpA (from UniProt P9WHJ5)”, for which the binding entry is listed as “binds”.

Source of the values: publication PMC12615793 (Nature Communications, 2025).
